Source: the M2OR odorant receptor database
This is a selection; strong and weak results do not stand in their true shares. The calls were merged from several studies; some rest on single wells.

By UniProt entry, the sequences of proteins in these tests, tags left out. Chains listed by the source or under a name are the forms on record and can include a tag or linker.
UniProt Q9R0K2, as listed by the source: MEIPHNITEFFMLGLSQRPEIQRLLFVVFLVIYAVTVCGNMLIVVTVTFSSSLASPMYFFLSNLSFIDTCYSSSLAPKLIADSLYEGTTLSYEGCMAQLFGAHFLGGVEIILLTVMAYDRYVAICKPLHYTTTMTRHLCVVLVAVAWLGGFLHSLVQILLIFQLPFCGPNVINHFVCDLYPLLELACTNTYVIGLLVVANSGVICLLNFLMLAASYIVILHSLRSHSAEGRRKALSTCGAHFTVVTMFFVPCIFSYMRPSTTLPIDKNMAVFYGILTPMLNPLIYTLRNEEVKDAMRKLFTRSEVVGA
UniProt Q9WVD9, as listed by the source: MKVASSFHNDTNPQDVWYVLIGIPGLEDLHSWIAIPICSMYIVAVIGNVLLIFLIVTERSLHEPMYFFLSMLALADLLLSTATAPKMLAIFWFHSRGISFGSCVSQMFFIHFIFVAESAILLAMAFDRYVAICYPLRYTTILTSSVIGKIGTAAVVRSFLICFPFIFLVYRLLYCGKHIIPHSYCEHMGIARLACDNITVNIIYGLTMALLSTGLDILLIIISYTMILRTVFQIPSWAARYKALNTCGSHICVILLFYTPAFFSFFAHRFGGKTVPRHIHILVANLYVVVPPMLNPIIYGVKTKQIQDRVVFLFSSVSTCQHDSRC
UniProt Q9WVD7, as listed by the source: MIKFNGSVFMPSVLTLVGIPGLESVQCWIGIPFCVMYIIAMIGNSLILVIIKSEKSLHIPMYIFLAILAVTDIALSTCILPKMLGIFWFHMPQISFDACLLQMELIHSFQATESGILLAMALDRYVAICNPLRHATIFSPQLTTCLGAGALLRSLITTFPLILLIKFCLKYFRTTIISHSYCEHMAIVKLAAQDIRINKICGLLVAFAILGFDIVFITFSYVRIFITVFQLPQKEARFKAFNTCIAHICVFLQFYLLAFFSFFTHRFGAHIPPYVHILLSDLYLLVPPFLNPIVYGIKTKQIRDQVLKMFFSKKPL

Assays:
Details in all cases: stereoisomer not certain
[1] = molecular target: T1, UniProt Q9EPN9
T1 sequence (whole entry): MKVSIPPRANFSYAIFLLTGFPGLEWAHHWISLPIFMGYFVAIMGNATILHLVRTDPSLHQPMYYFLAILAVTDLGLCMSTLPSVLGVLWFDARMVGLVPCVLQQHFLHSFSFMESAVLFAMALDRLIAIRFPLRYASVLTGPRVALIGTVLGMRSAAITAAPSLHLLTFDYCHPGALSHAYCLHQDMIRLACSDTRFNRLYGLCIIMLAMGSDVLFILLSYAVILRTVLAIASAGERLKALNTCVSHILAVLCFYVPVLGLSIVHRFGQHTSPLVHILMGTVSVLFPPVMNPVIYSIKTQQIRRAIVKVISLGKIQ
Method in brief: (§1)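 Whether a receptor–molecule pair is responsive (active) rests on the original authors' judgment that its measured signal was statistically different from baseline. Pairs without that judgment are non-responsive (inactive). Sources used varied assay methods, commonly transient luciferase assays in mammalian cell lines.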

[2] = molecular target: UniProt Q9R0K2
Method in brief: as §1

[3] = molecular target: T2, UniProt Q9WU86
T2 sequence (whole entry): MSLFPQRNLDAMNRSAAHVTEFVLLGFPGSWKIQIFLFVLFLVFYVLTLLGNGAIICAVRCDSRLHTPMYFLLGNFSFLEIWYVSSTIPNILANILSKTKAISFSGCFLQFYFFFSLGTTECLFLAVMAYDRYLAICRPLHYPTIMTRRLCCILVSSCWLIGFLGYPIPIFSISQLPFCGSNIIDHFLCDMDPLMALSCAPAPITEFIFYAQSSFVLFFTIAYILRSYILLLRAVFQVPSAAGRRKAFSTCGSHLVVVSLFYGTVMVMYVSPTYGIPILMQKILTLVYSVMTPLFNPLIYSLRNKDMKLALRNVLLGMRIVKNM
Method in brief: as §1

[4] = molecular target: T3, UniProt Q9WU94
T3 sequence (whole entry): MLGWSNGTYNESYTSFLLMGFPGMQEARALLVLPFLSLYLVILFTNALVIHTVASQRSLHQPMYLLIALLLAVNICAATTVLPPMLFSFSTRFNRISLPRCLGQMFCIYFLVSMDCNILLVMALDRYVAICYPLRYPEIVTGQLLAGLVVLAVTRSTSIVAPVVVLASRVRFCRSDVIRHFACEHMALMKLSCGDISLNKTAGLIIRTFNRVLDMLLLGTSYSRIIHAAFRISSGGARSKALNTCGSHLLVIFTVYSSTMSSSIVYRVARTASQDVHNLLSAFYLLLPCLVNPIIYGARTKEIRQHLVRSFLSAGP
Method in brief: as §1

[5] = molecular target: UniProt Q9WVD9
Method in brief: as §1

[6] = molecular target: T4, UniProt Q9WVN5
T4 sequence (whole entry): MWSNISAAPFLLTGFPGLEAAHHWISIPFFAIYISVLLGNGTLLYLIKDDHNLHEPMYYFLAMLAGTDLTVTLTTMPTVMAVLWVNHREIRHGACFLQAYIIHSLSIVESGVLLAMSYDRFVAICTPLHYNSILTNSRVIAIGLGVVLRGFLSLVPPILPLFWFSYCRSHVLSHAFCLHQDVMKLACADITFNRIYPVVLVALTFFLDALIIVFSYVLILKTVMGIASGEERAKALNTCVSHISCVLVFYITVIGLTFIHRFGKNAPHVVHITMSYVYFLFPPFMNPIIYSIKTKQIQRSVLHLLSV
Method in brief: as §1

[7] = molecular target: T5, UniProt Q99NH4
T5 sequence (whole entry): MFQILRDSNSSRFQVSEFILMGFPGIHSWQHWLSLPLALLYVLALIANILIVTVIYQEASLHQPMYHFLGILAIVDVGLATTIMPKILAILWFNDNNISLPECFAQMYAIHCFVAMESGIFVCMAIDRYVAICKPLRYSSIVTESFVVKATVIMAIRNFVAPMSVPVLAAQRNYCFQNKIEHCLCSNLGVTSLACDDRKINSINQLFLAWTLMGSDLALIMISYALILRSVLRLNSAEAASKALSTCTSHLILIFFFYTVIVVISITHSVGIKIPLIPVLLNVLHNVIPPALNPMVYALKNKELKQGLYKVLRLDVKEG
Method in brief: as §1

[8] = molecular target: UniProt Q9WVD7
Method in brief: as §1
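Also: active if original authors judged signal statistically different from baseline.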

SMILES | odorant receptor agonist call [1] | odorant receptor agonist call [2] | odorant receptor agonist call [3] | odorant receptor agonist call [4] | odorant receptor agonist call [5] | odorant receptor agonist call [6] | odorant receptor agonist call [7] | odorant receptor agonist call [8]
CC(=O)c1ccccc1 | inactive | inactive | active | inactive | inactive | inactive | – | –
CCCCCCCCCCC=O | – | – | – | – | – | – | active | –
CCCCO | – | – | – | – | – | – | inactive | –
CC12CCC(C1)C(C)(C)C2=O (centres undefined) | inactive | inactive | inactive | – | inactive | inactive | – | –
C=C(C)C1CC=C(C)C(=O)C1 (centres undefined) | inactive | inactive | inactive | inactive | inactive | inactive | – | –
CCCCCCCC=O | inactive | inactive | inactive | – | inactive | inactive | active | –
CCCCCOC(C)=O | – | – | – | inactive | – | – | – | –
CCCCCC(C)=O | inactive | inactive | inactive | – | inactive | inactive | – | –
CCCCCCC=O | inactive | inactive | inactive | inactive | inactive | inactive | inactive | –
CC(C)CC(=O)O | – | – | – | inactive | – | – | – | –
CCCCCCCCCC=O | inactive | inactive | inactive | – | inactive | inactive | inactive | –
CCCCCC(=O)O | inactive | inactive | inactive | inactive | inactive | active | inactive | inactive
C=CCc1ccc(O)c(OC)c1 | – | – | – | inactive | – | – | – | –
CCCC(=O)O | – | – | – | inactive | – | – | inactive | inactive
CC(C)(O)CCCC1=CCC(C=O)CC1 (centres undefined) | inactive | inactive | inactive | – | inactive | inactive | – | –
O=C1CCCCC1 | inactive | inactive | inactive | – | inactive | inactive | – | –
CCCCCCCCC=O | inactive | inactive | inactive | inactive | inactive | inactive | inactive | –

Some of the entries above in a different format:
SMILES	odorant receptor agonist call [1]	odorant receptor agonist call [2]	odorant receptor agonist call [3]	odorant receptor agonist call [4]	odorant receptor agonist call [5]	odorant receptor agonist call [6]	odorant receptor agonist call [7]	odorant receptor agonist call [8]
C=CCc1ccc(O)c(OC)c1	–	–	–	inactive	–	–	–	–
CCCC(=O)O	–	–	–	inactive	–	–	inactive	inactive
